Data as given in PubChem BioAssay AID1508597 (Cure First, 2020).
Shown is an unselected part of the about 2,100 reagents, under one of the conditions tested. 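Calls flag viability under 80% in either arm, not effects specific to rucaparib; the reference for percent is not stated.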 Unmarked entries are inactive. A reagent listed more than once was tested more than once; the source does not tell the runs apart. Reagent sequences are not shown. Not stated in the record: the 100% reference.

Screen: 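Genes whose silencing sensitises or protects ovarian cancer cells against rucaparib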 (primary screen)
System: human ovarian carcinoma lines grown from tumours: OCI-P5x (papillary serous) and OCI-C5x (clear cell)
Reagent: siRNA pool against human genes, 1.25 pmol siRNA per well
Time to read-out: 72 h or 96 h, depending on the cell culture
Treatment: rucaparib 20 µM (about IC30) or vehicle, present until read-out
Rucaparib or vehicle: Vehicle
Cell line: OCI-P5x (serous)
Detection: 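Luminescent ATP-based viability assay read 72 or 96 h after transfection, depending on culture, given as normalised percent viability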
Direction: viability, normalised: higher = more viable cells remaining
Hit rule: 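Active when normalised viability falls below 80 percent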
Meaning of the calls: active = viability under 80%; inactive = viability 80% or more

| gene knocked down | technical replicate | viability, normalised (%) |
| --- | --- | --- |
| HELLS | 1 | 77.4 (active) |
| HELLS | 2 | 86.9 |
| HELLS | 3 | 111 |
| MOV10 | 1 | 64.8 (active) |
| MOV10 | 2 | 62.5 (active) |
| MOV10 | 3 | 106 |
| MORF4L1 | 1 | 63.5 (active) |
| MORF4L1 | 2 | 68.6 (active) |
| MORF4L1 | 3 | 47.8 (active) |
| HJURP | 1 | 81.8 |
| HJURP | 2 | 101 |
| HJURP | 3 | 132 |
| PRKCQ | 1 | 102 |
| PRKCQ | 2 | 96 |
| PRKCQ | 3 | 127 |
| VRK1 | 1 | 92.5 |
| VRK1 | 2 | 89.8 |
| VRK1 | 3 | 90.7 |
| NQO2 | 1 | 91 |
| NQO2 | 2 | 86.5 |
| NQO2 | 3 | 80 |
| DCLRE1B | 1 | 52 (active) |
| DCLRE1B | 2 | 44.5 (active) |
| DCLRE1B | 3 | 40.7 (active) |
| WIZ | 1 | 57.4 (active) |
| WIZ | 2 | 79.7 (active) |
| WIZ | 3 | 55.9 (active) |
| GNRHR | 1 | 65 (active) |
| GNRHR | 2 | 69.3 (active) |
| GNRHR | 3 | 86.1 |

Targets listed so far whose target name begins with P or p (3):
| gene knocked down | technical replicate | viability, normalised (%) |
| --- | --- | --- |
| PRKCQ | 1 | 102 |
| PRKCQ | 2 | 96 |
| PRKCQ | 3 | 127 |

More results:
| gene knocked down | technical replicate | viability, normalised (%) |
| --- | --- | --- |
| PRMT3 | 1 | 76.6 (active) |
| PRMT3 | 2 | 77.8 (active) |
| PRMT3 | 3 | 105 |
| MLH3 | 1 | 65.6 (active) |
| MLH3 | 2 | 80.3 |
| MLH3 | 3 | 71.8 (active) |
| IL4 | 1 | 62.8 (active) |
| IL4 | 2 | 69.8 (active) |
| IL4 | 3 | 102 |
| CDC5L | 1 | 56.8 (active) |
| CDC5L | 2 | 67.3 (active) |
| CDC5L | 3 | 61.3 (active) |
| CRADD | 1 | 77.7 (active) |
| CRADD | 2 | 76.3 (active) |
| CRADD | 3 | 71.7 (active) |
| TGFB1 | 1 | 102 |
| TGFB1 | 2 | 95.1 |
| TGFB1 | 3 | 93.3 |
| ARID5B | 1 | 48.6 (active) |
| ARID5B | 2 | 57.1 (active) |
| ARID5B | 3 | 52.6 (active) |
| RNF168 | 1 | 52.1 (active) |
| RNF168 | 1 | 81.2 |
| RNF168 | 2 | 70.8 (active) |
| RNF168 | 2 | 64 (active) |
| RNF168 | 3 | 75 (active) |
| RNF168 | 3 | 64 (active) |
| FRMPD4 | 1 | 65.8 (active) |
| FRMPD4 | 2 | 62.4 (active) |
| FRMPD4 | 3 | 75.7 (active) |
| MDC1 | 1 | 87.2 |
| MDC1 | 2 | 84.9 |
| MDC1 | 3 | 66.9 (active) |
| PCDHB16 | 1 | 59.8 (active) |
| PCDHB16 | 2 | 41.8 (active) |
| PCDHB16 | 3 | 95.4 |
| STK17B | 1 | 125 |
| STK17B | 2 | 118 |
| STK17B | 3 | 130 |
| PLK2 | 1 | 100 |
| PLK2 | 2 | 78 (active) |
| PLK2 | 3 | 78.5 (active) |
| PLK1 | 1 | 33.7 (active) |
| PLK1 | 2 | 31.9 (active) |
| PLK1 | 3 | 55.7 (active) |
